# The list shows a part of the results.
# Biological target: T1, OsSMF1 (Oryza sativa, UniProt Q6ZLB0 1-436)
# T1 sequence: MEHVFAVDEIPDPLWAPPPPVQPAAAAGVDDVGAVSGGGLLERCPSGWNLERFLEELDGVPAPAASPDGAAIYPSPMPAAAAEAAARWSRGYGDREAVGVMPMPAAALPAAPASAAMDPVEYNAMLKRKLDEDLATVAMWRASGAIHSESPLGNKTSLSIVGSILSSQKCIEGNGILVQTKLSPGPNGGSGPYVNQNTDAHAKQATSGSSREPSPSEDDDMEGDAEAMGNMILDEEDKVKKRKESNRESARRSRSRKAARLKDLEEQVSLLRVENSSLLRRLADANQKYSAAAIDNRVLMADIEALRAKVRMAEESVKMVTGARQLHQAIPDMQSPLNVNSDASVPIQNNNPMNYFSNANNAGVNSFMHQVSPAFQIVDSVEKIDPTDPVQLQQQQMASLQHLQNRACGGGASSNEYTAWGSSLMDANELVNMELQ
# Assay: protein-binding microarray (RPBM); PBS, 2% BSA, 51.3 ng/ul salmon testes DNA, 50 uM zinc acetate, 200 nM TF, 25 C, 1 h; high values mean tight binding
# Conditions: protein: recombinant; tags: N-terminal polyhistidine and DsRed monomer fusion (pET32a); chain copies: 2; label: CyDye5-dUTP incorporated in the synthesized complementary strand; 3' TTTTT single-stranded linker to array surface; dsDNA, one strand shown
# How it was run: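 Binding signal is defined as the fluorescence intensity of each feature in arbitrary units, read on an Axon 4000B scanner. Transcription factors with N-terminal polyhistidine and DsRed fusions came from E. coli BL21-CodonPlus and were purified on Ni–NTA. They were incubated at 200 nM for 1 h at 25 °C on a custom Agilent array that had been made double-stranded with Cy5-dUTP, with 50 µM zinc acetate present, and the array was washed.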
row,Sequence,binding signal
1,TCGATTTGGGGAAGGGAGAGGCGTGTGGCGTGTGACGTGTCGGAGTCACCTAGTGCAG,19500 fluorescence intensity (a.u.)
2,TACAAACTGAAACATCTGTGTGTCACTAGTCAGTCACTATCGGAGTCACCTAGTGCAG,3850 fluorescence intensity (a.u.)
3,TATTTAATTGTTGTTACAATGACACTGCTTTACAACCTATCGGAGTCACCTAGTGCAG,3990 fluorescence intensity (a.u.)
4,TTATGTATTTCCTTTTATGGTGACACTACAGTGTTTTGCGCGGAGTCACCTAGTGCAG,3600 fluorescence intensity (a.u.)
5,TTATGGATGCGCCGCGCGCACCTGTGACGTGTTGCCGGCGCGGAGTCACCTAGTGCAG,11800 fluorescence intensity (a.u.)
6,GATCAAATTGCCACGTAAGCGCCACGTCAATGCCATGTCACGGAGTCACCTAGTGCAG,48000 fluorescence intensity (a.u.)
7,AGCGACGCGCACCTAAACACGTGTGACGCGAGCGGCGAGCCGGAGTCACCTAGTGCAG,5710 fluorescence intensity (a.u.)
8,GCTGAATTTACGTGGATGAGCTAATTAGGTCCAGGACATTCGGAGTCACCTAGTGCAG,3160 fluorescence intensity (a.u.)
9,TCCAAACACGCGCAAACACCGCACGTGCCTGACCCAAACTCGGAGTCACCTAGTGCAG,3210 fluorescence intensity (a.u.)
10,ACAAGCTGAGTTGGAGATTAACAAAGAATGGTGTGTTCACCGGAGTCACCTAGTGCAG,3810 fluorescence intensity (a.u.)
11,CTGTTAAGTGTCAATGGGTACGTCACCTAGCTGTAAATACCGGAGTCACCTAGTGCAG,3460 fluorescence intensity (a.u.)
12,CCCCATCCTAGATGGAACAACCACGTCATCTCATGGGTGACGGAGTCACCTAGTGCAG,14800 fluorescence intensity (a.u.)
13,TATTAGATTACACACGTTTTCCCATAAGCTATCTTTTAAGCGGAGTCACCTAGTGCAG,3260 fluorescence intensity (a.u.)
14,ATAGCGCGCACCACCACTCGGCGTGTACACACACACACATCGGAGTCACCTAGTGCAG,3820 fluorescence intensity (a.u.)
15,ACGTTAGCGCCACGTGGCACCGGCCTTTCGTCCTTATCCTCGGAGTCACCTAGTGCAG,24800 fluorescence intensity (a.u.)
16,GGTGGAGTTGCCTTGCCCGAGAGGAGCGGGCACTTCGGGTCGGAGTCACCTAGTGCAG,4840 fluorescence intensity (a.u.)
17,CGATTGGTAGATGCAGTTCTCAGCTCTCAATGATGCAACTCGGAGTCACCTAGTGCAG,3690 fluorescence intensity (a.u.)
18,GTCGTCTAGTAGTAGTAGCCTACCACCACCTCCCTCGGCGCGGAGTCACCTAGTGCAG,3230 fluorescence intensity (a.u.)
19,AAAACGTGCACGTGGAAAACGAGCTAGATGGGTTGGGAAGCGGAGTCACCTAGTGCAG,3320 fluorescence intensity (a.u.)
20,TCTCGCTTACAGGTGGGTCCCACACGTCATCCTCTCCGGGCGGAGTCACCTAGTGCAG,18800 fluorescence intensity (a.u.)
21,TGGGTGGGTGCGGCGTGGAGTGACGTGGCGGCGGGTGTGGCGGAGTCACCTAGTGCAG,20900 fluorescence intensity (a.u.)
22,ATTGCTGCAAATAAAGTGGGGAAATGTTAATCAATGAATGCGGAGTCACCTAGTGCAG,31700 fluorescence intensity (a.u.)
23,TGCGAGTGTGCGGCAATGCAAGTATGCAACACGCGCTCGCCGGAGTCACCTAGTGCAG,26100 fluorescence intensity (a.u.)
24,GGGGAGAAGTAGGAGGAGGTACGTATTGCCTATAGGCGGACGGAGTCACCTAGTGCAG,3500 fluorescence intensity (a.u.)
25,GAACACACCCGAATTCGTCGTCATCCTCGACGACTTCGACCGGAGTCACCTAGTGCAG,4330 fluorescence intensity (a.u.)
26,GAGCGAGGCGAGGGTGGGGAGGCGGAGGAGGATGTCCAGGCGGAGTCACCTAGTGCAG,4580 fluorescence intensity (a.u.)
27,TAACCCCTGCTGCGTGAGACGTGTCAATAAAGGTCAGAACCGGAGTCACCTAGTGCAG,3600 fluorescence intensity (a.u.)

# Reformatted: entries from further up.
row | Sequence | binding signal
1 | TCGATTTGGGGAAGGGAGAGGCGTGTGGCGTGTGACGTGTCGGAGTCACCTAGTGCAG | 19500 fluorescence intensity (a.u.)
2 | TACAAACTGAAACATCTGTGTGTCACTAGTCAGTCACTATCGGAGTCACCTAGTGCAG | 3850 fluorescence intensity (a.u.)
3 | TATTTAATTGTTGTTACAATGACACTGCTTTACAACCTATCGGAGTCACCTAGTGCAG | 3990 fluorescence intensity (a.u.)

# Additional entries:

row,Sequence,binding signal
1,AGTGAAACGGTGTCAATTACTGCCTTGTCACTTACTGATGCGGAGTCACCTAGTGCAG,6800 fluorescence intensity (a.u.)
2,GTTGTTTGTAATTTGGTATTGTAACTCCTCGCGTGGCGTGCGGAGTCACCTAGTGCAG,35000 fluorescence intensity (a.u.)
3,GTGTAGTTGGAGCGCGCGGTGGAAGATGAACAAGCTCAGCCGGAGTCACCTAGTGCAG,41200 fluorescence intensity (a.u.)
4,CGTTTGTTCCTCTCACCATCGAAAACATAATAGAATACACCGGAGTCACCTAGTGCAG,14100 fluorescence intensity (a.u.)
5,AAGGCGATTAGATTAGCGAGCACCGCACACCCGAACGCCACGGAGTCACCTAGTGCAG,3340 fluorescence intensity (a.u.)
6,TAATCATATCCTACTAATCACCAGTCACCACCATGAACTTCGGAGTCACCTAGTGCAG,4820 fluorescence intensity (a.u.)
7,TGATAACAGACACGTATATATCAGCCTAATTTTACGGAGACGGAGTCACCTAGTGCAG,4020 fluorescence intensity (a.u.)
8,TCTCTTTTGTGCTGCTGTCGAACGCAGCTACGTGTCAGTGCGGAGTCACCTAGTGCAG,8710 fluorescence intensity (a.u.)
9,CAGCTCGGACCCGTCGTGACGCGGTGACGCCGTCTCCGCCCGGAGTCACCTAGTGCAG,7440 fluorescence intensity (a.u.)
10,GCAAGTATCCAACTCATCTCTTTCCTTATCTCAGTCAATCCGGAGTCACCTAGTGCAG,4300 fluorescence intensity (a.u.)
11,TTGCTATTGTCCTGCTTCTCTTCCACCTCACCGTTGCTATCGGAGTCACCTAGTGCAG,5080 fluorescence intensity (a.u.)
12,AGCTTGGTGCGTCATGGTCCCACTGTTCATTACTTTCCTTCGGAGTCACCTAGTGCAG,8120 fluorescence intensity (a.u.)
13,TCCCTCCAGTGACGACACAACTGAATTCGGTGCCTTCCTTCGGAGTCACCTAGTGCAG,3440 fluorescence intensity (a.u.)
14,GTCCGGTTGAACGAGATCTATTGACGCTTGACTTGTCTCACGGAGTCACCTAGTGCAG,3210 fluorescence intensity (a.u.)
15,AATCGCTCGCACAGCCGCATCTTCCGCCGCCACGGCTTCTCGGAGTCACCTAGTGCAG,3800 fluorescence intensity (a.u.)
16,CGCAAAACCCTACCTCTCCTCCACGCGGCGGCCGTCGGCGCGGAGTCACCTAGTGCAG,4080 fluorescence intensity (a.u.)
17,CTTTCCAGCACAATTTTGCTTTCCAGTTCCGTCCGAATGGCGGAGTCACCTAGTGCAG,6830 fluorescence intensity (a.u.)
18,CTCTCTCTCTCAAGGAAACTCATTGCATCCGCACACGTTCCGGAGTCACCTAGTGCAG,3310 fluorescence intensity (a.u.)
19,TCAATCTGGAAGAGTTCCCTTTTATGTGACATGCTCAAACCGGAGTCACCTAGTGCAG,4240 fluorescence intensity (a.u.)
20,CATCCAAAATATATAAGGGCGGGAGCGAGGCTATGAGAGGCGGAGTCACCTAGTGCAG,3150 fluorescence intensity (a.u.)
21,GAATAGTAATAGCGTTTTATTAATTTGCCACATTTGCAGTCGGAGTCACCTAGTGCAG,3380 fluorescence intensity (a.u.)
22,ATACAATTGCACACACTCATTTATATACAAGCACATCCTCCGGAGTCACCTAGTGCAG,3360 fluorescence intensity (a.u.)
23,TCCACATGATGCCCTCGCCAAGTCACCATGATATCATCATCGGAGTCACCTAGTGCAG,11500 fluorescence intensity (a.u.)
24,TAATTCTCCTACTGTAACAAACTTGTCTTCAATTCCACGTCGGAGTCACCTAGTGCAG,4020 fluorescence intensity (a.u.)
25,ATGGAGGATGTCTGTCTCATCCATGGCGTGTAGCTAGCTACGGAGTCACCTAGTGCAG,3470 fluorescence intensity (a.u.)
26,ATTAATGAACTAAAATGCGTCAAATATATAACATTGATATCGGAGTCACCTAGTGCAG,23100 fluorescence intensity (a.u.)
27,ACAAGCCCATCGTGGTAGATATGCTTTTCTCCCCAACCTCCGGAGTCACCTAGTGCAG,3220 fluorescence intensity (a.u.)

# Source: publication PMC7819943, “Rice protein-binding microarrays: a tool to detect cis-acting elements near promoter regions in rice”
